One sequence from paper PMC12667460 can be followed below.

The series addresses T1, ZGPAT (UniProt Q8N5A5).
T1 sequence (looked up, limits assumed): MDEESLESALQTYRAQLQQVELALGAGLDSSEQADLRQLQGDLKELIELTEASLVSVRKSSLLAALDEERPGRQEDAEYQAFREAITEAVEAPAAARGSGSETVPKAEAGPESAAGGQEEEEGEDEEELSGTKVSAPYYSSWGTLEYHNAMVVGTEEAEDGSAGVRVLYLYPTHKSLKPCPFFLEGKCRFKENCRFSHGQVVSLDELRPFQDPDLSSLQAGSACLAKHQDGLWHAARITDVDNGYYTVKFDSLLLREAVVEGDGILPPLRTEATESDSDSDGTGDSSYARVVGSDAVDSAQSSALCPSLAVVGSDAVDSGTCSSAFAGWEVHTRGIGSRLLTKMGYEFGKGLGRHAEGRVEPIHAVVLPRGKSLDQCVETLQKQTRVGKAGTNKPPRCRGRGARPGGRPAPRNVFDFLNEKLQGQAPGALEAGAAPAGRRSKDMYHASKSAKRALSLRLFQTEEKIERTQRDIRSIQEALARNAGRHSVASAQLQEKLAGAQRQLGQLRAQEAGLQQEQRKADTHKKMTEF
Put plainly: EMSA supershift. The conditions noted are these: HEK293T nuclear extract, anti-ZGPAT; EMSA with HEK293T nuclear extract, biotin probe, chemiluminescent detection; RNA pull-down with HEK293T lysate; protein in an extract. On the technique in general: In EMSA bound probe runs differently from free probe, usually more slowly.

For at least one entry, the source does not settle the construct or the ends of the probe. Where cells or extracts were used, other partners may take part. Protein sequences can lack the tags named with them.

Take “TCGCGGTGGTGGTAATGTGAGTGAGTTTGTC (double strand) [CNTNAP3 hot/cold EMSA probe (ZGPAT motif)]”: the binding result is on record as “binds”.
